Experiment [1] has as its target T1, hTregL1-his (human) (UniProt Q96JA1).
T1 sequence (chain, N-glycosylation at N116 and N650 (as printed)): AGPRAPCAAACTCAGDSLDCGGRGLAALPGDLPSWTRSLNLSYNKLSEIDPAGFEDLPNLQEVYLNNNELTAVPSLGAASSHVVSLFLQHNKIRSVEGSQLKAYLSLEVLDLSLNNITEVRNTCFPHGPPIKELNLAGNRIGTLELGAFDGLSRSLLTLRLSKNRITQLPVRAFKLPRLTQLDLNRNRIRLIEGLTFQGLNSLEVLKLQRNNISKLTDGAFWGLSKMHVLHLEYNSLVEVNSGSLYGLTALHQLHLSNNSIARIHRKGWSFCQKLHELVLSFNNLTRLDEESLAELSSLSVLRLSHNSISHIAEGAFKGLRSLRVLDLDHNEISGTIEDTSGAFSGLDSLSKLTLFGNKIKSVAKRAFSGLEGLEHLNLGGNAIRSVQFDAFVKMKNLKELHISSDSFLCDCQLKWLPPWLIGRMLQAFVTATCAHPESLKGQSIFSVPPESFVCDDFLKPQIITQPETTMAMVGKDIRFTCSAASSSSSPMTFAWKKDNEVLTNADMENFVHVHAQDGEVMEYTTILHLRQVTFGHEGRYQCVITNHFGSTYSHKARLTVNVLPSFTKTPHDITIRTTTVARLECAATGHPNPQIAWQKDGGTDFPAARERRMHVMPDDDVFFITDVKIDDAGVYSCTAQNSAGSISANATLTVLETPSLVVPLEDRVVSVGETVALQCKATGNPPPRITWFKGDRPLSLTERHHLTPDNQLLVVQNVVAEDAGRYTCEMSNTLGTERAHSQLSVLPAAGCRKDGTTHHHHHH
The experiment can be described thus: epitope mapping by CL-MS, XL-MS and affinity-MS.

Experiment [2] addresses T1, hTregL1-his (human). The experiment can be described thus: antigen on antibody-coupled CNBr Sepharose column.

No constants are given. Whether binding was seen depends on the method and setting. Some binding calls cover weakened binding; strength is not graded here. Where a sequence is shown, tags or fusion partners need not be part of it.

B1: GTC310-01-hlgG1 (antibody, human IgG1, kappa, V domains shown)
VH: EVQLLESGGGLVQPGGSLRLSCAASGFTFSNYAMSWVRQAPGKGLEWVSVISHGGGSTYYADSVKGRFTISRDNSKNTLYLQMNSLRAEDTAVYYCARVISNCHLGVCYYSNGMDVWGQGTLVTVSS
VL: QLVLTQPPSVSAAPGQRVSISCSGSSSNIGDNYVSWYQQVPGSAPKLLIYDNNKRPSGIPDRFSASKSGTSATLGITGLQTGDEADYYCATWDGSLSAGRVFGGGTKLTVLR
As for B1, the binding result in experiment [1] and in experiment [2] was “binds” in each case.

For the origin of these results see patent EP4678655A1.
